According to paper PMC10792809:

Molecular target: endogenous PLAU (plasminogen activator urokinase) (human (endogenous in A549 and H1299))
Assay: co-IP; endogenous PLAU precipitated with anti-PLAU or IgG from lysates of ARID1A-depleted A549 and H1299 cells; protein A/G agarose beads, 4 °C, 2 h; Western blot

B1: endogenous TM4SF1 (protein, UniProt P30408 1-202)
chain: MCYGKCARCIGHSLVGLALLCIAANILLYFPNGETKYASENHLSRFVWFFSGIVGGGLLMLLPAFVFIGLEQDDCCGCCGHENCGKRCAMLSSVLAALIGIAGSGYCVIVAALGLAEGPLCLDSLGQWNYTFASTEGQYLLDTSTWSECTEPKHIVEWNVSLFSILLALGGIEFILCLIQVINGVLGGICGFCCSHQQQYDC
binding: binds

Results are given in words; binding and its absence hold for the method and conditions named. Binding seen in cells or lysates may run through a third protein. Binding calls can cover weak binding; strength is not graded here.
